Measurements from US20200407452A1 (published 2020).
No constants are given. Whether binding was seen depends on the method and setting. For part of these data: A result given as binding can be weak or reduced; the word gives no strength.

How the values were obtained:
[1] = biological target: llama-human MET chimeric protein CH2; assay: ELISA, MET protein coated, mAb 0-20 nM
[2] = biological target: llama-human MET chimeric protein CH6; assay: ELISA, MET protein coated, mAb 0-20 nM
[3] = biological target: llama-human MET chimeric protein CH7; assay: ELISA, MET protein coated, mAb 0-20 nM
human MET ECD [4] = biological target: T1, human MET ECD (human, UniProt P08581 25-932); assay: ELISA, MET protein coated, mAb 0-20 nM
T1 construct: range 1-932; recombinant; range as printed includes the signal peptide; also called hMET; hMET ECD

[5] = biological target: llama-human MET chimeric protein CH1; assay: ELISA, MET protein coated, mAb 0-20 nM
llama MET ECD (llama) = assay: ELISA, MET protein coated
[6] = biological target: llama-human MET chimeric protein CH5; assay: ELISA, MET protein coated
[7] = biological target: llama-human MET chimeric protein CH3; assay: ELISA, MET protein coated
[8] = biological target: llama-human MET chimeric protein CH4; assay: ELISA, MET protein coated
mouse MET ECD = biological target: T2, mouse MET ECD (mouse, UniProt P16056 25-931); assay: ELISA, MET ECD coated
T2 construct: range 1-931; recombinant; range as printed includes the signal peptide; also called mMET; mMET ECD

human MET ECD [9] = biological target: T1, human MET ECD; assay: ELISA, MET ECD coated
[10] = biological target: llama-human MET chimeric protein CH3; assay: ELISA, MET protein coated, mAb 0-20 nM
[11] = biological target: llama-human MET chimeric protein CH5; assay: ELISA, MET protein coated, mAb 0-20 nM
[12] = biological target: llama-human MET chimeric protein CH4; assay: ELISA, MET protein coated, mAb 0-20 nM
[13] = biological target: llama-human MET chimeric protein CH6; assay: ELISA, MET protein coated
[14] = biological target: llama-human MET chimeric protein CH7; assay: ELISA, MET protein coated

binding [1]	binding [2]	binding [3]	binding (human MET ECD [4])	binding [5]	binding (llama MET ECD (llama))	binding [6]	binding [7]	binding [8]	binding (mouse MET ECD)	binding (human MET ECD [9])	binding [10]	binding [11]	binding [12]	binding [13]	binding [14]	Binder
binds	binds	binds	binds	binds	no binding (tested: 0-20 nM)	no binding (tested: 0-20 nM)	no binding (tested: 0-20 nM)	no binding (tested: 0-20 nM)	binds	binds	–	–	–	–	–	72F8 chimeric llama-human IgG1 mAb (antibody, V domains shown, human IgG1 CH1-CH2-CH3 and human CL lambda) VH: ELQLVESGGGLVQPGGSLRLSCAASGFTFSNYVMSWVRQAPGKGLEWVSDTNSGGSTSYADSVKGRFTISRDNAKNTLYLQMNSLKPEDTALYYCARSFFYGMNYWGKGTQVTVSS VL: QSALTQPPSLSASPGSSVRLTCTLSSGNNIGSYDISWYQQKAGSPPRYLLNYYTDSRKHQDSGVPSRFSGSKDASANAGLLLISGLQPEDEADYYCSAYKSGSYRWVFGGGTHVTVL
binds	binds	binds	binds	binds	no binding (tested: 0-20 nM)	no binding (tested: 0-20 nM)	–	no binding (tested: 0-20 nM)	binds	binds	binds	–	–	–	–	71A3 chimeric llama-human IgG1 mAb (antibody, V domains shown, human IgG1 CH1-CH2-CH3 and human CL lambda) VH: EVQLVESGGGLVQPGGSLRLSCAASGFSFKDYDITWVRQAPGKGLEWVSTITSRSGSTSYVDSVKGRFTISGDNAKNTLYLQMNSLKPEDTAVYYCAKVYATTWDVGPLGYGMDYWGKGTLVTVSS VL: SYELTQPSALSVTLGQTAKITCQGGSLGSSYAHWYQQKPGQAPVLVIYDDDSRPSGIPERFSGSSSGGTATLTISGAQAEDEGDYYCQSADSSGNAAVFGGGTHLTVL
binds	–	–	binds	binds	no binding (tested: 0-20 nM)	–	–	–	binds	binds	binds	binds	binds	no binding (tested: 0-20 nM)	no binding (tested: 0-20 nM)	71G3 chimeric llama-human IgG1 mAb (antibody, V domains shown, human IgG1 CH1-CH2-CH3 and human CL lambda; also called 71G3 Human IgG1/lambda) VH: QVQLVESGGGLVQPGGSLRVSCAASGFTFSTYYMSWVRQAPGKGLEWVSDIRTDGGTYYADSVKGRFTMSRDNAKNTLYLQMNSLKPEDTALYYCARTRIFPSGYDYWGQGTQVTVSS VL: QAVVTQEPSLSVSPGGTVTLTCGLSSGSVTTSNYPGWFQQTPGQAPRTLIYNTNSRHSGVPSRFSGSISGNKAALTIMGAQPEDEADYYCSLYPGSTTVFGGGTHLTVL
binds	–	–	binds	binds	no binding (tested: 0-20 nM)	–	–	–	binds	binds	binds	binds	binds	no binding (tested: 0-20 nM)	no binding (tested: 0-20 nM)	76G7 chimeric llama-human IgG1 mAb (antibody, V domains shown, human IgG1 CH1-CH2-CH3 and human CL lambda) VH: QVQLVESGGNLVQPGGSLRLSCAASGFTFSNYYMSWVRQAPGKGLEWVSDIYSDGSTTWYSDSVKGRFTISRDNAKNTLSLQMNSLKSEDTAVYYCARVKIYPGGYDAWGQGTQVTVSS VL: QAGLTQPPSVSGSPGKTVTISCAGNSSDVGYGNYVSWYQQFPGMAPKLLIYLVNKRASGITDRFSGSKSGNTASLTISGLQSEDEADYYCASYTGSNNIVFGGGTHLTVL
binds	binds	binds	binds	binds	no binding (tested: 0-20 nM)	no binding (tested: 0-20 nM)	–	no binding (tested: 0-20 nM)	binds	binds	binds	–	–	–	–	71G2 chimeric llama-human IgG1 mAb (antibody, V domains shown, human IgG1 CH1-CH2-CH3 and human CL lambda; also called 71G2 Human IgG1/lambda) VH: EVQLQESGGGLVQPGGSLRLSCAASGFTFSIYDMSWVRQAPGKGLEWVSTINSDGSSTSYVDSVKGRFTISRDNAKNTLYLQMNSLKPEDTAVYYCAKVYGSTWDVGPMGYGMDYWGKGTLVTVSS VL: SSALTQPSALSVSLGQTARITCQGGSLGSSYAHWYQQKPGQAPVLVIYGDDSRPSGIPERFSGSSSGGTATLTISGAQAEDEDDYYCQSTDSSGNTVFGGGTRLTVL
binds	binds	binds	binds	binds	no binding (tested: 0-20 nM)	no binding (tested: 0-20 nM)	–	no binding (tested: 0-20 nM)	binds	binds	binds	–	–	–	–	71D6 chimeric llama-human IgG1 mAb (antibody, V domains shown, human IgG1 CH1-CH2-CH3 and human CL lambda; also called 71D6 Human IgG1/lambda) VH: ELQLVESGGGLVQPGGSLRLSCAASGFTFSSYGMSWVRQAPGKGLEWVSAINSYGGSTSYADSVKGRFTISRDNAKNTLYLQMNSLKPEDTAVYYCAKEVRADLSRYNDYESYDYWGQGTQVTVSS VL: QPVLNQPSALSVTLGQTAKITCQGGSLGARYAHWYQQKPGQAPVLVIYDDDSRPSGIPERFSGSSSGGTATLTISGAQAEDEGDYYCQSADSSGSVFGGGTHLTVL
binds	binds	binds	binds	binds	no binding (tested: 0-20 nM)	no binding (tested: 0-20 nM)	–	no binding (tested: 0-20 nM)	binds	binds	binds	–	–	–	–	71C3 chimeric llama-human IgG1 mAb (antibody, V domains shown, human IgG1 CH1-CH2-CH3 and human CL lambda) VH: QLQLVESGGGLVQPGGSLRLSCAASGFTFSSHAMSWVRQAPGKGLEWVSAINSGGGSTSYADSVKGRFTISRDNAKNTLYLQMNSLKPEDTAVYYCAKELRFDLARYTDYEAWDYWGQGTQVTVSS VL: SYELTQPSALSVTLGQTAKITCQGGSLGSSYAHWYQQKPGQAPVLVIYDDDSRPSGIPERFSGSSSGGTATLTISGAQAEDEGDYYCQSADSSGNAAVFGGGTHLTVL
binds	binds	binds	binds	binds	no binding (tested: 0-20 nM)	no binding (tested: 0-20 nM)	–	no binding (tested: 0-20 nM)	binds	binds	binds	–	–	–	–	71D4 chimeric llama-human IgG1 mAb (antibody, V domains shown, human IgG1 CH1-CH2-CH3 and human CL lambda) VH: ELQLVESGGGLVQPGGSLRLSCAASGFTFSGYGMSWVRQAPGKGLEWVSDINSGGGSTSYADSVKGRFTISRDNAKNTLYLQMNSLKPEDTAVYYCAKDMRLYLARYNDYEAWDYWGQGTQVTVSS VL: SSALTQPSALSVTLGQTAKITCQGGSLGSSYAHWYQQKPGQAPVLVIYDDDSRPSGIPERFSGSSSGGTATLTISGAQAEDEGDYYCQSADSSGNAAVFGGGTHLTVL
binds	–	–	binds	binds	no binding (tested: 0-20 nM)	–	–	–	binds	binds	binds	binds	binds	no binding (tested: 0-20 nM)	no binding (tested: 0-20 nM)	76H10 chimeric llama-human IgG1 mAb (antibody, V domains shown, human IgG1 CH1-CH2-CH3 and human CL lambda) VH: QLQLVESGGGLVQPGGSLRVSCTASGFTFNTYYMTWVRQAPGKGLEWVSDINSGGGTYYADSVKGRFTISRDNAKNTLYLQMNSLKPEDTALYYCVRVRIWPVGYDYWGQGTQVTVSS VL: QAVVTQEPSLSVSPGGTVTLTCGLSSGSVTTSNYPGWFQQTPGQAPRTLIYNTNNRHSGVPSRFSGSISGNKAALTITGAQPEDEADYYCSLYTGSYTTVFGGGTHLTVL
